Non-standard residues stand in square brackets, D forms with d. dPhe(4-Cl) = N[C@H](Cc1ccc(Cl)cc1)C(=O)O; d2Nal = N[C@H](Cc1ccc2ccccc2c1)C(=O)O; d3Pal = N[C@H](Cc1cccnc1)C(=O)O
What was measured:
[1] = general procedure: peptide synthesis; rink amide MBHA; DIC/HOBt or DIC/Oxyma (SPPS); EDC·HCl/HOAt/DIEA (fragment coupling); details: whole synthesis, scale 20 mmol, TFA salt
[2] = general procedure: peptide synthesis; Rink amide MBHA resin; 2-chlorotrityl chloride resin; DIC/HOBt or DIC/Oxyma (SPPS); EDC·HCl/HOAt/DIEA (fragment coupling); details: whole synthesis, scale of the general procedure 10 mmol to 120 mmol (SPPS), 2.55 to 34.04 mmol (fragment cou, TFA salt (crude, fragments)), acetate (GNA·2AcOH) final
[3] = general procedure: peptide synthesis; 2-chlorotrityl chloride; DIC/HOBt or DIC/Oxyma (SPPS); EDC·HCl/HOAt/DIEA (fragment coupling); details: whole synthesis, scale 120 mmol, TFA salt

Substance | crude mass [1] | crude HPLC purity [2] | crude yield [2] | crude mass [3]
H2N-Tyr-D-hArg(Et)2-Leu-hArg(Et)2-Pro-D-Ala-NH2 | 18 g | 82.9% | 98.4% | –
Ac-[d2Nal][dPhe(4-Cl)][d3Pal]S-OH | – | 95.5% | 94.6% | 76.5 g
